# Values of other authors, collected in patent US10426778B2, “Prophylactic agent and/or therapeutic agent for diffuse large B-cell lymphoma” (ONO PHARMACEUTICAL CO., LTD., priority 2014, dated 2019).
# For at least one compound, name, drawing or mass did not settle the structure.
# Test system: ABC-DLBCL patients
# Details: 560 mg, cited from earlier work
structure (smiles),measurement,setting,value
"C=CC(=O)N1CCC[C@@H](n2nc(-c3ccc(Oc4ccccc4)cc3)c3c(N)ncnc32)C1 [comparative compound, Ibrutinib]",CR,2 cases in 25 cases,8%
same,PR,8 cases in 25 cases,32%
